This series concerns the target T1, Dpb11-m1,2,3,5-ΔC K463E,K469E,R538E,K549E (Saccharomyces cerevisiae (budding yeast)) (UniProt P47027).
T1 sequence (looked up, limits assumed): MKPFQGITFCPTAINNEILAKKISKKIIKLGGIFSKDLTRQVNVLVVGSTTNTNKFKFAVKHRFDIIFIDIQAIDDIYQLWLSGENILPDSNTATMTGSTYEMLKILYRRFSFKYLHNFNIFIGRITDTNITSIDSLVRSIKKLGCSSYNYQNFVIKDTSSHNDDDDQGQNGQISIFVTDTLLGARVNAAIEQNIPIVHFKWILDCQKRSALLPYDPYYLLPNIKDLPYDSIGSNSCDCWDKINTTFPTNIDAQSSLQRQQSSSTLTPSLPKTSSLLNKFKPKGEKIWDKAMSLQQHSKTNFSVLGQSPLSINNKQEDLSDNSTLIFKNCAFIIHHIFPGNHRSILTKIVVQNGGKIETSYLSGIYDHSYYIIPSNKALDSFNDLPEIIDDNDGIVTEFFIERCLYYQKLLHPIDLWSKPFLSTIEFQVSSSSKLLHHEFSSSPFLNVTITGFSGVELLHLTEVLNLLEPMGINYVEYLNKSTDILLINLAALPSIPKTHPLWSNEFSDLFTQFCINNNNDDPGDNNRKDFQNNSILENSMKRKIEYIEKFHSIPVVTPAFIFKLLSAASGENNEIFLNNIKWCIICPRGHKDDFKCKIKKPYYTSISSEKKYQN
The experiment in a line: EMSA. The note with it: no shift up to 320 nM, EMSA: 1 nM 32P-DNA, 20 mM Tris-HCl pH 7.5, 0.1 mM EDTA, 0.2 mM DTT, 10% glycerol, 5 min at 30 C, 0.7% native agarose in 0.5x TBE, recombinant protein, label: 32P. On the technique in general: In EMSA bound probe runs differently from free probe, usually more slowly.

Protein sequences can lack the tags named with them. Some results are limits rather than exact numbers.

As to “ATGTCCTAGCAAGCCAGAATTCGGCAGCGTC (double strand) [blunt dsDNA]”, the half-maximal binding is above 320 nM.

Turning to “ATGTCCTAGCAAGCCAGAATTCGGCAGCGTCTTTTTTTTTTTTTTTTTTTTTTTTTTTTTTTTTTTTTTTTTTTTTTTTTTTTTTTTTTTTTTTTTTTTTTTTTTTTTTTT / TTTTTTTTTTTTTTTTTTTTTTTTTTTTTTTTTTTTTTTTTTTTTTTTTTTTTTTTTTTTTTTTTTTTTTTTTTTTTTTTGACGCTGCCGAATTCTGGCTTGCTAGGACAT [fork DNA]”, for the setting “folded or branched DNA”, the half-maximal binding is above 320 nM.

Turning to “ATGTCCTAGCAAGCCAGAATTCGGCAGCGTCTTTTTTTTTTTTTTTTTTTTTTTTTTTTTTTTTTTTTTTTTTTTTTTTTTTTTTTTTTTTTTTTTTTTTTTTTTTTTTTTCCACGTCGGCGTCGCCACGAGC / GCTCGTGGCGACGCCGACGTGGTTTTTTTTTTTTTTTTTTTTTTTTTTTTTTTTTTTTTTTTTTTTTTTTTTTTTTTTTTTTTTTTTTTTTTTTTTTTTTTTGACGCTGCCGAATTCTGGCTTGCTAGGACAT [bubble DNA]”, for the setting “folded or branched DNA”, the half-maximal binding was above 320 nM.

Take “TTTTTTTTTTTTTTTTTTTTTTTTTTTTTTTTTTTTTTTTTTTTTTTTTTTTTTTTTTTTTTTTTTTTTTTTTTTTTTTT [ssDNA (dT80)]”: the half-maximal binding (single-stranded DNA) is above 320 nM.

The record behind these values is paper PMC5415106.
